Laboratory results reported in publication PMC11526040.
These are yes or no findings as the source states them, for the method shown. For some of these results: In cells and extracts the contact can be indirect. Some entries that bind do so weakly or less than the wild type. For some of these results: Where a sequence is shown, tags or fusion partners need not be part of it.

Amino acid sequences for entries named in this document (tags omitted).
UniProt O60016: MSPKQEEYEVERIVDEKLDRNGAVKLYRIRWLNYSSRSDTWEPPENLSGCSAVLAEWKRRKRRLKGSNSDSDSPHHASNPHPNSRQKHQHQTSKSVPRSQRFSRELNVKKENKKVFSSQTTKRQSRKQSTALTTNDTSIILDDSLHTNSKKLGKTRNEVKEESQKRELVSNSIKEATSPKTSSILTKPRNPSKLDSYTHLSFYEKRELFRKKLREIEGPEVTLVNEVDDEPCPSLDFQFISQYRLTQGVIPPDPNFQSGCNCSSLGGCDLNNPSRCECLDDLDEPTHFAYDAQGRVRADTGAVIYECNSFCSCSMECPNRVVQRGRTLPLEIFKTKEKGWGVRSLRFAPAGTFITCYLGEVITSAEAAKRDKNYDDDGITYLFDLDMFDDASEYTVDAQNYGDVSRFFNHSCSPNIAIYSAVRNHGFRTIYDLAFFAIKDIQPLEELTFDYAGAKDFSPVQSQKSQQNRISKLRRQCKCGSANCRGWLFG
UniProt P46595: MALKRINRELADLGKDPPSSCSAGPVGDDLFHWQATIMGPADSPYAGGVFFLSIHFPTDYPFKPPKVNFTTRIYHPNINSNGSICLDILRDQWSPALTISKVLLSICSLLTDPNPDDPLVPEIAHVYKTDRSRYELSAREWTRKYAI

Key:
Raf2-Flag (S. pombe) = target: T1, Raf2-Flag (S. pombe) (UniProt O74560); experiment: co-IP; S. pombe whole-cell extracts in lysis buffer (40 mM Tris-HCl pH 7.5, 1 mM EDTA, 10% glycerol, 0.1% NP-40, 300 mM NaCl); GFP antibody on Protein A/G Sepharose (Cul4-GFP) or Anti-Flag M2 Affinity Gel (Flag-tagged proteins), overnight at 4 °C; Ubc4 detected with anti-mUBE2D3; for Cul4 and Raf2 also with nuclease treatment
T1 sequence: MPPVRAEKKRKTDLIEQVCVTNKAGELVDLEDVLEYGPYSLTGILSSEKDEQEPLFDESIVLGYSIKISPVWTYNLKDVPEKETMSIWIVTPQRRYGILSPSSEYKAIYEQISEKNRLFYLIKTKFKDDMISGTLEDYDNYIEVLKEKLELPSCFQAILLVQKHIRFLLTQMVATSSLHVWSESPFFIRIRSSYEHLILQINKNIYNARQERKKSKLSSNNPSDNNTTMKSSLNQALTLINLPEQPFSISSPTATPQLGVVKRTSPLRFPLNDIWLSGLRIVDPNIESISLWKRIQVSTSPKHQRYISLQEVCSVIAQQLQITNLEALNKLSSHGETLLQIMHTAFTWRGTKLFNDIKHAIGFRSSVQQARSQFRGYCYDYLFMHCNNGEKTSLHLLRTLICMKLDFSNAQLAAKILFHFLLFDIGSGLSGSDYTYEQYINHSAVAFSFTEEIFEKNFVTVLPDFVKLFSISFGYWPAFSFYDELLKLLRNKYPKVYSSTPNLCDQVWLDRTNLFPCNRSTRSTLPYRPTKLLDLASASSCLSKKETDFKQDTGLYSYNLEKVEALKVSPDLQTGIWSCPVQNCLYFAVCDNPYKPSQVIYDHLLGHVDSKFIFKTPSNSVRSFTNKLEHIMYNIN

Flag-Raf1 (S. pombe) = target: T2, Flag-Raf1 (S. pombe) (UniProt O74910); experiment: as above
T2 sequence: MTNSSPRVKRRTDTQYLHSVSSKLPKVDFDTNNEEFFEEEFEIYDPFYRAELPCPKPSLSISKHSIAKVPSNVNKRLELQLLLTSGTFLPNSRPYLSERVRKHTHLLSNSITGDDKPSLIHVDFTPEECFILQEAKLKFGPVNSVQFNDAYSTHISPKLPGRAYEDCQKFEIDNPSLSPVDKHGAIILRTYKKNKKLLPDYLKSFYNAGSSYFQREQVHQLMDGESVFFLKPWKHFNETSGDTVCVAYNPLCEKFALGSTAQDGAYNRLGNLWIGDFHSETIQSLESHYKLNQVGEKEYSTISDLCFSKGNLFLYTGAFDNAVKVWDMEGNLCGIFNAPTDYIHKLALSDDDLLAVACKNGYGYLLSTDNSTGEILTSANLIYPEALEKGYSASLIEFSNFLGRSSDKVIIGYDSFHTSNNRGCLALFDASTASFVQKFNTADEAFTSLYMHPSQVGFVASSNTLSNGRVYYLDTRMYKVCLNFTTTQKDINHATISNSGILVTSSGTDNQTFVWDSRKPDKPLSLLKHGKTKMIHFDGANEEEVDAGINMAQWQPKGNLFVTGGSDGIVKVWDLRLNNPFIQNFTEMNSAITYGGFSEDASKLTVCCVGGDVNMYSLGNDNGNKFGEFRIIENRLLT

Cul4-GFP (S. pombe) = target: T3, Cul4-GFP (S. pombe) (UniProt O14122); experiment: as above
T3 sequence: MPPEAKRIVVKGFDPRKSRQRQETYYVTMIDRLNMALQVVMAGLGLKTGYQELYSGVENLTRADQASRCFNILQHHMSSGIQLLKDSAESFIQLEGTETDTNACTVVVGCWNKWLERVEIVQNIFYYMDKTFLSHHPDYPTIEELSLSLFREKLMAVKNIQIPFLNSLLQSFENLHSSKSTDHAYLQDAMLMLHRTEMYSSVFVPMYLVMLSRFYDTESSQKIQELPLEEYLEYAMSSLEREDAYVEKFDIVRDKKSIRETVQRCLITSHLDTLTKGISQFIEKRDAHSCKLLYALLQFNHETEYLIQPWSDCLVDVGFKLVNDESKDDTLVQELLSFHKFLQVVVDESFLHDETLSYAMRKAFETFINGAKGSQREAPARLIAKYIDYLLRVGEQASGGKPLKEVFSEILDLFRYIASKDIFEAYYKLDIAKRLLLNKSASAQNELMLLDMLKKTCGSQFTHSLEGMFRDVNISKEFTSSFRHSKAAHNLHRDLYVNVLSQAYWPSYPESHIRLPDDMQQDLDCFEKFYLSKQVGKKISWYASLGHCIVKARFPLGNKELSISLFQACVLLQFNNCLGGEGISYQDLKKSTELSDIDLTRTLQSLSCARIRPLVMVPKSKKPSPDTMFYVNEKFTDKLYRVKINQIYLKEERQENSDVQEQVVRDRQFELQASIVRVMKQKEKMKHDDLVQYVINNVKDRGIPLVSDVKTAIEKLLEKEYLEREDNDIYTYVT

[1] = target: recombinant Clr4 (6xHis-1xFlag-Clr4 and 6xHis-1xMyc-Clr4) (S. pombe) (UniProt O60016); experiment: pull-down; Flag antibody on Protein A/G Sepharose; recombinant Flag-Clr4 and Myc-Clr4, 500 nM each, with 0, 50, 100 and 200 nM centromeric ncRNA, in lysis buffer (40 mM Tris-HCl pH 7.5, 1 mM EDTA, 10% glycerol, 0.1% NP-40, 250 mM NaCl), 4 °C, 3 h; Western blot with anti-Myc and anti-Flag; both purified

Row | binding (Raf2-Flag (S. pombe)) | binding (Flag-Raf1 (S. pombe)) | binding (Cul4-GFP (S. pombe)) | binding [1] | Substance
1 | binds | binds | binds |  | E2 ubiquitin conjugating enzyme Ubc4 (from UniProt P46595 1-147)
2 |  |  |  | binds weakly | recombinant Clr4 (6xHis-1xFlag-Clr4 and 6xHis-1xMyc-Clr4) (from UniProt O60016 1-490) (enzyme)
